Assay results taken from US20190194322A1.
No constants are given. Whether binding was seen depends on the method and setting. Some entries that bind do so weakly or less than the wild type. For some of these results: Sequences can lack the tags named with a protein.

T1: VSIG3 His-fusion (human) (UniProt Q5DX21)
T1 sequence (biotinylated (in the co-immunoprecipitation of FIG. 2), looked up): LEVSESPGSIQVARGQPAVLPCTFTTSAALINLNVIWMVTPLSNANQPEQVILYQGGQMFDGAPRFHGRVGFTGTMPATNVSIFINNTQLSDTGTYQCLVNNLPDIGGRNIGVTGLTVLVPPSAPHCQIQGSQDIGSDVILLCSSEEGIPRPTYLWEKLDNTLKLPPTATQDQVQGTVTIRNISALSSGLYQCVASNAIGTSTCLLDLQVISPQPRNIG


How the values were obtained:
VSIG3 His-fusion (human) = molecular target: T1, VSIG3 His-fusion (human); assay: SPR (Biacore), antibody captured, VSIG3-His as analyte (FIG. 15)
[1] = molecular target: Recombinant human VSIG3 Fc Chimera (human (homo sapiens)); assay: SPR (Biacore), VSIG3-Fc immobilised, antibody as analyte (FIG. 14)

Row | binding (VSIG3 His-fusion (human)) | binding [1] | Binder
1 | binds | binds | mouse anti-human VSIG3 monoclonal antibody from clone #774221 (antibody, IgG1, V domains shown) VH: DVQLQESGPGLVKPSQSLSLTCTVTGYSITSDYAWNWIRQFPGNKLEWMGYISYSGYAIYNPSLKSRISITRDTSKNHFFLQLNSVTTEDTATYYCARSGGSWFAYWGQGTLVTVSA VL: DIQMTQSPASLSASVGETVTITCRASENINSYLAWYQQKQGKSPQLLVYNAKTLAEGVPSRFSGSGSGTQFSLKINSLQPEDFGSYYCQHHYGTPPTFGGGTKLEIKR
2 | binds | binds | mouse anti-human VSIG3 monoclonal antibody from clone #774213 (antibody, mouse IgG2b, kappa, V domains shown) VH: DVQLVESGGGLVQPGGSRKLSCAASGFTFSSFGMHWVRQAPEKGLEWVAYISSGSTTIYYADTVKGRFTISRDNPKNTLFLQMTSLRSEDTAMYYCTRGSYYRYDLYYAMDYWGQGTSVTVSS VL: DIQMTQSPSSLSASLGGKVTITCKASQDIHKYVAWYQHKPGKGPRLLIHYTSTLQPGIPSRFSGSGSGSDYSFSISNLEPADIASYYCLQYDNLLFTFGGGTKLEIKR
